Assay results reported in PubChem BioAssay AID248 (DTP/NCI, 2004).
The list is a part of this screen's results and no random one: it gathers tests that were run many times, whatever their T/C, doses with no T/C, and many T/C values between a quarter and a half above the control. Other doses and runs of a compound stand elsewhere. T/C is the treated group as % of the vehicle group. Some doses have a count of surviving animals in place of a T/C: the source files T/C as zero there, which appears to mark a toxic dose or a test without result, not a measured value. Some doses without a T/C left all or most animals alive at the check, yet need not have been tolerated: survival well below the control is almost never listed, so the zero probably covers shortened survival too. Counts of survivors are from the toxicity check (mostly the fifth day) where no day follows; animals may have died later. Schedule codes are those of the source, read here as Q, the interval in days (D) or hours (H), X, the number of doses. Some doses were run more than once; the results are listed from low to high.

Tested on: L1210 leukemia ip in BDF1 mice, survival T/C
Test: NCI In Vivo Anticancer Drug Screen. Data for tumor model L1210 Leukemia (intraperitoneal) in B6D2F1 (BDF1) mice
Details: T/C endpoint: mean survival time, higher T/C = longer survival
[1] = dose: 100.0 mg/kg/injection, schedule: Q01DX001 (ip), vehicle: saline
[2] = dose: 200.0 mg/kg/injection, schedule: Q01DX001 (ip), vehicle: saline
[3] = dose: 400.0 mg/kg/injection, schedule: Q01DX001 (ip), vehicle: saline
[4] = dose: 400.0 mg/kg/injection, schedule: Q04DX003 (ip), vehicle: saline with Tween-80
[5] = dose: 200.0 mg/kg/injection, schedule: Q01DX009 (ip), vehicle: Klucel (hydroxypropylcellulose) (HPC)
[6] = dose: 400.0 mg/kg/injection, schedule: Q01DX009 (ip), vehicle: Klucel (hydroxypropylcellulose) (HPC)

O=C(CCl)Oc1c(Cl)c(Cl)c(Cl)c(Cl)c1Cl
survivor count (dose: 200.0 mg/kg/injection, schedule: Q04DX003 (ip), vehicle: alcohol): 0 of 6
survivor count (dose: 400.0 mg/kg/injection, schedule: Q04DX003 (ip), vehicle: alcohol): 0 of 6

CCOC(=O)c1cnc(SC)nc1OCC
survivor count (dose: 50.0 mg/kg/injection, schedule: Q01DX001 (ip), vehicle: Klucel (hydroxypropylcellulose) (HPC)): 1 of 6
survivor count [1]: 0 of 6
survivor count [2]: 0 of 6
survivor count [3]: 0 of 6

C[C@@H]1O[C@@H](O[C@H]2CC[C@]3(C=O)[C@H]4CC[C@]5(C)[C@@H](c6ccc(=O)oc6)CC[C@]5(O)[C@@H]4CC[C@]3(O)C2)[C@H](O)[C@H](O)[C@H]1O[C@@H]1O[C@H](CO)[C@@H](O)[C@H](O)[C@H]1O
survivor count (dose: 20.0 mg/kg/injection, schedule: Q01DX001 (ip), vehicle: carboxymethylcellulose (CMC)): 0 of 4
survivor count (dose: 40.0 mg/kg/injection, schedule: Q01DX001 (ip), vehicle: carboxymethylcellulose (CMC)): 0 of 4

C[N+]1(Cc2ccccc2)CCC(=O)CC1
survivor count [3]: 0 of 4

Cc1ccc(OCc2c(COc3ccc(Cl)cc3)sc3ccc(Cl)cc23)cc1
survivor count (dose: 100.0 mg/kg/injection, schedule: Q04DX003 (ip), vehicle: saline with Tween-80): 6 of 6

O=C(O)C(=O)c1ccc(O)cc1O
survivor count [3]: 2 of 4

CC1CN(CCCCO)C(=O)NC1=O (stereo not given)
survivor count [3]: 6 of 6

COc1cc2ccc3c(c2cc1OC)C(=O)CNC3C (stereo not given)
survivor count (dose: 25.0 mg/kg/injection, schedule: Q04DX003 (ip), vehicle: saline): 3 of 6
survivor count (dose: 50.0 mg/kg/injection, schedule: Q04DX003 (ip), vehicle: saline): 1 of 6
survivor count (dose: 100.0 mg/kg/injection, schedule: Q04DX003 (ip), vehicle: saline): 2 of 6
survivor count (dose: 200.0 mg/kg/injection, schedule: Q04DX003 (ip), vehicle: saline): 0 of 6
survivor count (dose: 400.0 mg/kg/injection, schedule: Q04DX003 (ip), vehicle: saline): 0 of 6

Clc1ccccc1C[P+](c1ccccc1)(c1ccccc1)c1ccccc1
survivor count [1]: 0 of 6
survivor count [2]: 0 of 6
survivor count [3]: 0 of 6

Cc1cc([N+](=O)[O-])ccc1P(=O)(O)O
survivor count [4]: 5 of 6

c1ccc(C(N2CCCCC2)N2CCCCC2)cc1
survivor count (dose: 400.0 mg/kg/injection, schedule: Q04DX003 (ip), vehicle: Klucel (hydroxypropylcellulose) (HPC)): 2 of 3

CC(=O)C(=Cc1ccc(Cl)c(Cl)c1)C(C)=O
survivor count [5]: 2 of 6
survivor count [6]: 0 of 6

OC1CC2C3CCC(C3)C2C1O (stereo not given)
survivor count [4]: 6 of 6

CO[C@H]1/C=C/O[C@@]2(C)Oc3c(C)c(O)c4c(O)c(c(/C=N/N5CCN(C)CC5)c(O)c4c3C2=O)NC(=O)/C(C)=C\C=C\[C@H](C)[C@H](O)[C@@H](C)[C@@H](O)[C@@H](C)[C@H](OC(C)=O)[C@@H]1C
survivor count [5]: 2 of 6
survivor count [6]: 0 of 6
survivor count (dose: 400.0 mg/kg/injection, schedule: Q01DX009 (ip), vehicle: saline): 3 of 6
survivor count (dose: 600.0 mg/kg/injection, schedule: Q01DX009 (ip), vehicle: saline): 0 of 6
survivor count (dose: 800.0 mg/kg/injection, schedule: Q01DX001 (ip), vehicle: acetone): 2 of 6 and 3 of 6
survivor count (dose: 800.0 mg/kg/injection, schedule: Q01DX009 (ip), vehicle: saline): 0 of 6
survivor count (dose: 1000.0 mg/kg/injection, schedule: Q01DX009 (ip), vehicle: saline): 0 of 6
survivor count (dose: 1200.0 mg/kg/injection, schedule: Q01DX001 (ip), vehicle: acetone): 0 of 6
survivor count (dose: 1600.0 mg/kg/injection, schedule: Q01DX001 (ip), vehicle: acetone): 0 of 6 and 3 of 6
survivor count (dose: 2000.0 mg/kg/injection, schedule: Q01DX001 (ip), vehicle: acetone): 0 of 6 and 3 of 6
